{"source": "patent US8609151B2", "about": "“Treatment of erectile dysfunction and libido enhancement” (CSIR, priority 2006, dated 2013)", "key": {"[1]": {"target": "T1, Phosphodiesterase 5 enzyme, partially purified from human platelets (Homo sapiens, UniProt O76074)", "T1 construct": "Phosphodiesterase 5 enzyme, partially purified from human platelets, was used; tissue MDS Pharma Laboratory in Taiwan (assay performed there); host or cells: human platelets", "test": "in vitro inhibition of the phosphodiesterase 5 enzyme (MDS Pharma)", "assay_type": "biochemical", "conditions": "isolated compounds at test concentration", "description": "Inhibition of the phosphodiesterase 5 enzyme limits the hydrolysis of cyclic Guanisine MonoPhosphate (cGMP) to acyclic Guanisine MonoPhosphate (5′GMP) and thereby increases the intracellular concentrations of cGMP which results in the relaxation of the corpus cavernosum smooth muscle. When this muscle is relaxed blood flows and fills the arteries causing the penis to erect.\nThe assay of the inhibition of the phosphodiesterase 5 enzyme was carried out by the MDS Pharma Laboratory in Taiwan. Phosphodiesterase 5 enzyme, partially purified from human platelets, was used. Test compounds and/or vehicles were incubated with 3.5 μg enzyme and 1 μM cGMP containing 0.01 μM [^3H]cGMP in Tris buffer at pH 7.5 for 20 minutes at 30° C. The reaction was terminated by boiling for 2 minutes and the resulting GMP was converted to guanosine by addition of 10 mg/ml snake venom nucleotidase and further incubation at 30° C. for 10 minutes. Unhydrolyzed cGMP was bound to AG1-X2 resin, and remaining [^3H]guanosine in the aqueous phase was quantitated by scintillation counting. […] Since enzyme activity could change from lot to lot, the concentration used was adjusted if necessary."}, "rabbit corpus cavernosum": {"test_system": "rabbit corpus cavernosum", "test": "rabbit corpus cavernosum relaxation/contraction, phenylephrine-contracted strip (MDS Pharma)", "assay_type": "cell-based", "conditions": "isolated compounds at test concentration", "description": "Rabbit corpus cavernosum relaxation/contraction was measured by the MDS Pharma Laboratory. Corpus cavernosum obtained from New Zealand-derived albino male rabbits weighing 2.5-3 kg and sacrificed by CO2 overexposure was used. A strip from the basal area of the corpus cavernosal was removed and placed under 2 g tension in a 10 ml bath containing Krebs solution at pH 7.4 at 32° C. and sub-maximal isometrically recorded tonic contraction was induced by phenylephrine (3 μM)."}}, "note": "Entries after “also recorded” stand apart in the source; their conditions may differ. At least one compound was matched to its structure with a doubt left."}
{"molecule": "COc1cc2c(-c3ccc4c(c3)OCO4)c3c(c(OC)c2c(OC)c1OC)COC3=O", "note": "[Compound 3, 9-(1′,3′-benzodioxol-5′-yl)-4,5,6,7-tetramethoxynaphtho[2,3-c]furan-1(3H)-one]", "values": [{"measurement": "phosphodiesterase 5 enzyme inhibition", "setting": "[1]", "value": "insignificant inhibition"}, {"measurement": "rabbit corpus cavernosum smooth muscle relaxation", "setting": "rabbit corpus cavernosum", "value": "observed; also recorded: did not exhibit any relaxation"}]}
{"molecule": "COc1ccc(CC2COC(=O)/C2=C\\c2ccc3c(c2)OCO3)cc1OC", "note": "(stereo not drawn) [Compound 6, 3-(1′,3′-benzodioxol-5′-ylmethylene)-4-(3″,4″-dimethoxybenzyl)dihydrofuran-2(5H)-one]", "values": [{"measurement": "rabbit corpus cavernosum smooth muscle relaxation", "setting": "rabbit corpus cavernosum", "value": "observed"}]}
